PMC3115976
No constants are given. Whether binding was seen depends on the method and setting. In cells and extracts the contact can be indirect. Some entries that bind do so weakly or less than the wild type. For part of these data: Tags and fused reporters may be left off the sequences shown.

Amino acid sequences for entries named in this document (tags omitted).
UniProt P43609: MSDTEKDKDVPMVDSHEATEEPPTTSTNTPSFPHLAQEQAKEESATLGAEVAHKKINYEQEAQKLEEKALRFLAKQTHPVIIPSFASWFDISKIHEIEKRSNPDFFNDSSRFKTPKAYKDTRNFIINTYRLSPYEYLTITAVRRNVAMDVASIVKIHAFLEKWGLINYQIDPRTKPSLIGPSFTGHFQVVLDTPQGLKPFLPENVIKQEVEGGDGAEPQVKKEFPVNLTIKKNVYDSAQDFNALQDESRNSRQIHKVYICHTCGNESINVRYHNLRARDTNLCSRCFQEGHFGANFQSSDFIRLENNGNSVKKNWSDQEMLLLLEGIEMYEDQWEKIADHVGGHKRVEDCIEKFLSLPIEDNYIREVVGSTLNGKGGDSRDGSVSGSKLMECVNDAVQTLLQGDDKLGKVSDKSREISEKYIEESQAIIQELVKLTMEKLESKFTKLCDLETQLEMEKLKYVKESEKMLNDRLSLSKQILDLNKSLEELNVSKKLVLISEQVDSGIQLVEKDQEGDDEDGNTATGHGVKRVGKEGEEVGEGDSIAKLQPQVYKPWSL
UniProt P43554: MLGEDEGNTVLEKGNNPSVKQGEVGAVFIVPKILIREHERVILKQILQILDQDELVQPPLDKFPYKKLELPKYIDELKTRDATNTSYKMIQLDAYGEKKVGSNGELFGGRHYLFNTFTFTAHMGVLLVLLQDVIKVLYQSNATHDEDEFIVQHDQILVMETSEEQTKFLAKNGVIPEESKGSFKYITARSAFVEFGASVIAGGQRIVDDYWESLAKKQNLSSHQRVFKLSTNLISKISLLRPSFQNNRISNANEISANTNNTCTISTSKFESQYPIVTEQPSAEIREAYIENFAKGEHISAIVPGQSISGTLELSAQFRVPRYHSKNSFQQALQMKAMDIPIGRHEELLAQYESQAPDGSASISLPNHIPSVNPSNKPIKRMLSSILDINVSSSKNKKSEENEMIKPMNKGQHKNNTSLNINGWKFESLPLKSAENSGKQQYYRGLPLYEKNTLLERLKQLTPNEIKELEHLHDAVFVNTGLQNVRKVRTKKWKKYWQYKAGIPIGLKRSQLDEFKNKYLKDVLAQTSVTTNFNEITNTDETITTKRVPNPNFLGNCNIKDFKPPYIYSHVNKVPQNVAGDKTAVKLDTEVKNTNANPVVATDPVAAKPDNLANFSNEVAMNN
UniProt P18480: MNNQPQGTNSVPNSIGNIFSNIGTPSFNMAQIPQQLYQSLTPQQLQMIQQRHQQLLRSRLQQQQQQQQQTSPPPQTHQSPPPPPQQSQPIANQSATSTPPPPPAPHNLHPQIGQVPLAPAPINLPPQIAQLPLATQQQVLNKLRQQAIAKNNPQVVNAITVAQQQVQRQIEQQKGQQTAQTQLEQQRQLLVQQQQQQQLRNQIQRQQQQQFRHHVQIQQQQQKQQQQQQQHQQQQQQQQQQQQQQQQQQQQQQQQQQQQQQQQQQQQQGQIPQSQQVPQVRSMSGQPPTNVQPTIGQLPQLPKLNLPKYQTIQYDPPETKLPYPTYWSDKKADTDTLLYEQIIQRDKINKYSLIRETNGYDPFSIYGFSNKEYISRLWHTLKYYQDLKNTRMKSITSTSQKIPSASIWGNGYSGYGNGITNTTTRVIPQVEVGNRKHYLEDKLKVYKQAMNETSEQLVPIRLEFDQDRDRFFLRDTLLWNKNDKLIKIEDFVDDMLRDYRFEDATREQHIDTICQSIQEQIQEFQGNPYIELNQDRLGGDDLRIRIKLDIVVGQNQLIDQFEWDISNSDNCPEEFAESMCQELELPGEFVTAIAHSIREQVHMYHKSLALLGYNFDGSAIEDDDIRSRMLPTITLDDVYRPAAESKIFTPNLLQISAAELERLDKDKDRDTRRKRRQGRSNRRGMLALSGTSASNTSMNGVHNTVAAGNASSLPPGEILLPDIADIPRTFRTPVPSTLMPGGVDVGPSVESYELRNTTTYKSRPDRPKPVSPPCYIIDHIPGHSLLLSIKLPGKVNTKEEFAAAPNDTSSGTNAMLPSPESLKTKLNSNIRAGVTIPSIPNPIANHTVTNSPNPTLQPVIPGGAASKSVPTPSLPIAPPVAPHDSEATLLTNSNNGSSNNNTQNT

Columns and labels:
[1] = target: T1, GST-Rtt106 (S. cerevisiae) (UniProt P40161); assay: pull-down; GST-Rtt106 on Glutathione Sepharose beads (moles equivalent to 5 ug GST) incubated with 2 mg total yeast whole cell extract protein, 2 h at 4°C; 40 mM HEPES pH 7.5, 150 mM NaCl, 0.1% Tween 20, 10% glycerol; TAP-tagged subunit detected by PAP-HRP western blot; only the target purified
T1 sequence: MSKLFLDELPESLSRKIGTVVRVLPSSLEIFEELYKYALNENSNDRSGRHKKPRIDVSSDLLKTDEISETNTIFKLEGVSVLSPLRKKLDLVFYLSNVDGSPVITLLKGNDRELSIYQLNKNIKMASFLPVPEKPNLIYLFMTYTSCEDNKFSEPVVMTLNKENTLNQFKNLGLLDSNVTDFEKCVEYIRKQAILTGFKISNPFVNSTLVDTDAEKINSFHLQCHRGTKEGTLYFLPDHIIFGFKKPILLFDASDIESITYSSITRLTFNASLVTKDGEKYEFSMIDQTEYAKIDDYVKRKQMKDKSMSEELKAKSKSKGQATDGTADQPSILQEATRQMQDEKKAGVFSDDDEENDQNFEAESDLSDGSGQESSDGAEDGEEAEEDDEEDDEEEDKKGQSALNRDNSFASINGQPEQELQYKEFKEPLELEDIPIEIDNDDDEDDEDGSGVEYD

[2] = target: T2, Rtt106-TAP (S. cerevisiae (endogenous in BY4741)) (UniProt P40161); assay: co-IP; yeast whole cell extract, 1 mg protein, Rtt106-TAP immunoprecipitated with anti-Protein A antibody (overnight, 4°C) and Protein A beads, 50 ug/mL ethidium bromide; 40 mM HEPES pH 7.5, 150 mM NaCl, 0.1% Tween 20, 10% glycerol; Snf5-HA detected by anti-HA western blot
T2 sequence: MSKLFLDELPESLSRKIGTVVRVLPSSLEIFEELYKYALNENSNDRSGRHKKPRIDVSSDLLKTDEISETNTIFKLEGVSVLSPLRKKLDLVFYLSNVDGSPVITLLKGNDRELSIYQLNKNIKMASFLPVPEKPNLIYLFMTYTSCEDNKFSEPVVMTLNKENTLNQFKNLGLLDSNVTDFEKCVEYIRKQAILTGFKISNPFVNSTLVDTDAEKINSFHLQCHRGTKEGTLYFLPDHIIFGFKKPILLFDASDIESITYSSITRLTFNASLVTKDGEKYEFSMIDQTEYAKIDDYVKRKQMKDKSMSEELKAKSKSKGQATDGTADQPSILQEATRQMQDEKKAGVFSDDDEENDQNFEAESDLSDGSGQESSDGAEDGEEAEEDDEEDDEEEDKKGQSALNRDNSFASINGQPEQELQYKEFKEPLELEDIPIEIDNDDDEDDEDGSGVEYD

[3] = target: Rsc8-TAP (S. cerevisiae (endogenous in BY4741)) (UniProt P43609); assay: co-IP; yeast whole cell extracts, TAP-tagged subunit immunoprecipitated with anti-Protein A antibody (2 h) and Protein A beads, with ethidium bromide; 50 mM Tris pH 8.0, 150 mM NaCl, 1% NP40, 10% glycerol; Rtt106-HA detected by anti-HA western blot
[4] = target: Swp82-TAP (S. cerevisiae (endogenous in BY4741)) (UniProt P43554); assay: as above

How did the binding [1] turn out when Hir2-TAP (from UniProt P32480 1-875) was run?
The binding was “binds”.

With Rsc8-TAP (from UniProt P43609 1-557) as the molecule, how does the binding [1] read?
The binding was “binds”.

With Snf5-HA (from UniProt P18480 1-905) as the molecule, how does the binding [2] read?
The binding was “binds”.

With Swp82-TAP (from UniProt P43554 1-623) as the molecule, how does the binding [1] read?
The binding was “binds”.

B1: Rtt106-HA (protein, UniProt P40161 1-455)
chain: MSKLFLDELPESLSRKIGTVVRVLPSSLEIFEELYKYALNENSNDRSGRHKKPRIDVSSDLLKTDEISETNTIFKLEGVSVLSPLRKKLDLVFYLSNVDGSPVITLLKGNDRELSIYQLNKNIKMASFLPVPEKPNLIYLFMTYTSCEDNKFSEPVVMTLNKENTLNQFKNLGLLDSNVTDFEKCVEYIRKQAILTGFKISNPFVNSTLVDTDAEKINSFHLQCHRGTKEGTLYFLPDHIIFGFKKPILLFDASDIESITYSSITRLTFNASLVTKDGEKYEFSMIDQTEYAKIDDYVKRKQMKDKSMSEELKAKSKSKGQATDGTADQPSILQEATRQMQDEKKAGVFSDDDEENDQNFEAESDLSDGSGQESSDGAEDGEEAEEDDEEDDEEEDKKGQSALNRDNSFASINGQPEQELQYKEFKEPLELEDIPIEIDNDDDEDDEDGSGVEYD
How did the binding [3] turn out when B1 was run?
The binding was “binds”.

And the binding [4]?
The binding was “binds”.
